According to article PMC10626419, “DONSON is required for CMG helicase assembly in the mammalian cell cycle” (EMBO Reports, 2023):
Results are given in words; binding and its absence hold for the method and conditions named. In cells and extracts the contact can be indirect. Some entries that bind do so weakly or less than the wild type.

Protein sequences, listed by entry. Tags and fused reporters are not part of them.
UniProt Q99LZ3: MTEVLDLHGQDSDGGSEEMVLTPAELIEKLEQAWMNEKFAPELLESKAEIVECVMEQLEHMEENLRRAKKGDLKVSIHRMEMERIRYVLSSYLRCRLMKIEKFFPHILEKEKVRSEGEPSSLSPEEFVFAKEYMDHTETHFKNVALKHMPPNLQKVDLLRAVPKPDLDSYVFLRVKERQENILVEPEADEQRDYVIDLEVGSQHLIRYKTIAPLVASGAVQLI
UniProt P97310: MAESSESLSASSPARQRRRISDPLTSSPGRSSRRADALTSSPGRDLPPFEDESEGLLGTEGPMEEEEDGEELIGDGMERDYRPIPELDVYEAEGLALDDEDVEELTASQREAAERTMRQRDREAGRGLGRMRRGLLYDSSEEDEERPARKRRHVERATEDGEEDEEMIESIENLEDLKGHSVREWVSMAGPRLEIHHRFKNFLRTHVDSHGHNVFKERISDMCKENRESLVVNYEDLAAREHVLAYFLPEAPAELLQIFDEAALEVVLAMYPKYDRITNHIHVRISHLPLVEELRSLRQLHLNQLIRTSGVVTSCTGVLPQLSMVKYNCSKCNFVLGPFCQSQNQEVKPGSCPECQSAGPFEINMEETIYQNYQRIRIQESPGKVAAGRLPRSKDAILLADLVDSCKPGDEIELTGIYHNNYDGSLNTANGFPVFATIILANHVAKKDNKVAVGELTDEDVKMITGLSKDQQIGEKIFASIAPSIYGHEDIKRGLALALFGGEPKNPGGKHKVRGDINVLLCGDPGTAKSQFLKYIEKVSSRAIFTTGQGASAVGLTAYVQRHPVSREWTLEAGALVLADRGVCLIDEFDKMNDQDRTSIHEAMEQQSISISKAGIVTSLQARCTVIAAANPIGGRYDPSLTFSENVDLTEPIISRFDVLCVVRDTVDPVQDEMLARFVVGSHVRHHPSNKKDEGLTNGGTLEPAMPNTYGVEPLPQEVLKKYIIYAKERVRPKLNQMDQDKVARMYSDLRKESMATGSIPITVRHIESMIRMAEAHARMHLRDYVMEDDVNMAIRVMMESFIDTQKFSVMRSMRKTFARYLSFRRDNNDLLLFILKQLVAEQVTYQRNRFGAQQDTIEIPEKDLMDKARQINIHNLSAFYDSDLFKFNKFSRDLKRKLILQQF

T1: TAP‐PSF1 (mouse (endogenous in mouse ES cells)) (UniProt Q9CZ15)
T1 sequence: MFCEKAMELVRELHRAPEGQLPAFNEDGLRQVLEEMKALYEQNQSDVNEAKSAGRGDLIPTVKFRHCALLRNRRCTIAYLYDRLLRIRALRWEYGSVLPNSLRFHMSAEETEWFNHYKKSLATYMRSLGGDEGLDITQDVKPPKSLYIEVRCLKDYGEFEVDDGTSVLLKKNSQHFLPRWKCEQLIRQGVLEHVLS


How the values were obtained:
[1] = target: T1, TAP‐PSF1 (mouse (endogenous in mouse ES cells)); assay: co-IP; TAP‐PSF1 isolated on magnetic beads coupled to rabbit IgG, 2 h at 4°C, from nuclease-treated native extracts of mouse ES cells; cells untreated or with p97 inhibitor CB‐5083 (Fig 1A), TAP‐Psf1 cells with or without 250 nM AGB1 and untreated TAP‐Psf1 BromoTag‐Donson cells (Fig 3A); immunoblotting
[2] = target: TAP‐SLD5 (mouse (endogenous in mouse ES cells)) (UniProt Q99LZ3); assay: co-IP; as a5, cells arrested in mitosis with STLC, with or without AGB1 (Fig 3C, lanes 5–6)
[3] = target: TAP‐SLD5 (mouse (endogenous in mouse ES cells)) (UniProt Q99LZ3); assay: co-IP; TAP‐SLD5 immunoprecipitated from extracts of BromoTag‐Donson TAP‐Sld5 mouse ES cells synchronised in mitosis (thymidine, then STLC) and released for 6 h into S‐phase, without AGB1; GINS subunits monitored throughout the experiment (Fig 3C)
[4] = target: T1, TAP‐PSF1 (mouse (endogenous in mouse ES cells)); assay: co-IP; as a1, TAP‐Psf1 BromoTag‐Donson cells incubated with 250 nM AGB1 to degrade BromoTag‐DONSON (Fig 3A, lanes 10–12)
[5] = target: T1, TAP‐PSF1 (mouse (endogenous in mouse ES cells)); assay: co-IP; TAP‐PSF1 isolated on magnetic beads coupled to rabbit IgG, 2 h at 4°C, from nuclease-treated native extracts of mouse ES cells; cells untreated or with p97 inhibitor CB‐5083 (Fig 1A), TAP‐Psf1 cells with or without 250 nM AGB1 and untreated TAP‐Psf1 BromoTag‐Donson cells (Fig 3A); immunoblotting; remark: listed apart in the source

Molecule	binding [1]	binding [2]	binding [3]	binding [4]	binding [5]
MCM2 (from UniProt P97310 1-904)	binds	no binding (condition: cells arrested in mitosis (STLC))	binds	binds weakly	
SLD5 (from UniProt Q99LZ3 1-223)	binds				
CDC45 (protein, UniProt Q9Z1X9 1-566) MFVTDFRKEFYETVHNQRVLLFVASDVDALCACKILQALFQCDHVQYTLVPVSGWQELETAYLEHKEQFSYFILINCGANVDLLDILQPDEDSIFFVCDTHRPVNVVNVYNDTQIKLLIKQEDDLEVPAYDDIFRDEAEDEDLSDSDGDGSEPSEKRTRLEEEIVERNRKRRQRREWEARRKDILFDYEQYEYYGTSSAMVMFDLAWMMSKDLNDMLWWAIVGLTDQWVHDKITQMKYVTDVGILQRHVSRHNHRNEAEENMLSVDCTRISFEYDLCLVLYQHWSLHESLYNTSYTAARFKLWSVHGQKRLQEFLADMGLPLKQVKQKFQSMDVSLKGNLREMIEESANKFGMKDMRVQTFSIQFGFKHKFLASDVVFATMSLMESPEKDGSGTDHFIQALDSLSRSNLDKLYLGLELAKKHLQATQQTIASCLCTNLVTSQGPFLYCSLMEGTPDVTLFSKPASLSLLSRHLLKSFVYSTKNRRCKLLPLVMAAPLSVEQGTVTVVGIPPETDSSDRKNFFGRAFEKAAESTSSRTLHNYFDLSVIELKAEDRSKFLDALVSLLS		no binding (condition: cells arrested in mitosis (STLC))	binds	binds weakly	binds
PSF1 (protein, UniProt Q9CZ15 1-196) MFCEKAMELVRELHRAPEGQLPAFNEDGLRQVLEEMKALYEQNQSDVNEAKSAGRGDLIPTVKFRHCALLRNRRCTIAYLYDRLLRIRALRWEYGSVLPNSLRFHMSAEETEWFNHYKKSLATYMRSLGGDEGLDITQDVKPPKSLYIEVRCLKDYGEFEVDDGTSVLLKKNSQHFLPRWKCEQLIRQGVLEHVLS			binds		
PSF3 (protein, UniProt Q9CY94 1-216) MSEAYFPVESGALGPEENFLSLDDILMSQEKLPVRVETPMPRLGAFFLERGAGSEPDHPLPQGTKLELPLWLAKGLFDHKRRILSVELPKMYQEGWRTVFSADANVVDLHKMGPHFYGFGSQLLHFDSPENADISQSLLKTFIGRFRRIMDSSQNSYNEDTSALVARLDETERGLFQIGQRSLNDFQSWEKGQASQITASSLVQNYKKRKFTNMED			binds		binds
MCM6 (protein, UniProt P97311 1-821) MDLAAAAEPGAGSQHPEVRDEVAEKCQKLFLDFLEEFQGSDGEIKYLQFAEELIRPERNTLVVSFADLEQFNQQLSTTIQEEFYRVYPYLCRALKTFVKDRKEIPFAKDFYVAFQDLPTRHKIRELTSSRIGLLTRISGQVVRTHPVHPELVSGTFLCLDCQTVIKDVEQQFKYTQPNICRNPVCANRKRFLLDTNKSRFVDFQKVRIQETQAELPRGSIPRSLEVILRAEAVESAQAGDRCDFTGALIVVPDVSKLSTPGARAETNSRVSGADGYETEGIRGLRALGVRDLSYRLVFLACHVAPTNPRFGGKELRDEEQTAESIKNQMTVKEWEKVFEMSQDKNLYHNLCTSLFPTIHGNDEVKRGVLLMLFGGVPKTTGEGTSLRGDINVCIVGDPSTAKSQFLKHVDEFSPRAVYTSGKASSAAGLTAAVVRDEESHEFVIEAGALMLADNGVCCIDEFDKMDMRDQVAIHEAMEQQTISITKAGVKATLNARTSILAAANPVSGHYDRSKSLKQNINLSAPIMSRFDLFFILVDECNEVTDYAIARRIVDLHSRIEESIDRVYSLDDIRRYLLFARQFKPKISKESEDFIVEQYKRLRQRDGSGVTKSSWRITVRQLESMIRLSESMARMHCCDEVQPKHVKEAFRLLNKSIIRVETPDVNLDQEEEIQMETDEGQGGVNGHADSPAPVNRFNGSSEDASQETVSKPSLRLGFAEYCRISNLIVLHLRKMEEEEDESALKRSELVNWYLKEIESEIDSEEELINKKTIIEKVVHRLTHYDHVLIELTQAGLKGSSEGSESYEEDPYLVVNPNYLLED		no binding (condition: cells arrested in mitosis (STLC))	binds		
Recombinant mouse DONSON (natural protein, UniProt Q9QXP4 1-560, looked up, DONSON, mouse; also called His‐SUMO‐DONSON (before cleavage); source: E. coli Rosetta (DE3) pLys, purified (Ni‐NTA, ULP1 cleavage, Superdex 200)) MAVSVPGYSPSFKRPPETVRLRRKRSRDHGAAVPASLPEPAPRRAALAAGLPLRPFPTAGGRGGAAATIARRNPFARLDNRPRVSDEASEEPLRGPQGASGPLLDSNEENNLLWEDTSSHERTGTELSQSQRVSLSESDTWSSDGTELPVDWSIKTRLLFTSSQPFSWADHLKAQEEAQGLVQHCRATEVTLPQSIQDPKLSTALRCAFQQALVYWLHPAFSWLPLFPRIGADRKMAAKTSPWSADETLQHALMSDWSVSFTSLYNLLKTKLCPYFYVCSYQFTVLFRAAGLAGSSVITALISPTTRGLREAMRNEGIEFSLPLLEEIGHKKKVRDPSLESEEEQAVSDEDEEESFSWLEEIGVQDQIKKPDVISIKLRKEKHEVQMDHRPESVVLVKGLNTFKLLNFLINCKSLVATSGAQAGLPPTLLSPIAFRGASMQMLKARSSNVKTQALSGYRDKFSLDITGPVMPHALHSMSMLLRSSQRGSFSAGLYAHEPTAVFNVGLSLDKELDRKVAREDLANCGLHPKTLEQLSQRPVLGKSSLRSVEMSDYILSWRS					binds
